Measured values: patent US20230146239A1 (THE SCRIPPS RESEARCH INSTITUTE, priority 2020, published 2023)
In brackets after ≈: the same amount, converted by molar mass. Where two headings read alike, the source gives them in different places.

Columns and labels:
[1] = system: VanA E. faecalis (BM 4166); experiment: In vitro antimicrobial microdilution assay (MIC); type: cell-based, Enterococcus faecalis
[2] = system: VanA VRE, 4 strains; experiment: Antimicrobial activity against VanA VRE panel (4 strains), summarised in text; type: cell-based, Enterococcus faecalis, Enterococcus faecium
[3] = system: VanA VRE E. faecalis (BM 4166); experiment: Impact of added LTA, phosphate, POPE on antimicrobial activity (MIC); type: cell-based, Enterococcus faecalis; details: for MIC, −NaH2PO4 / MIC, −POPE: E. faecalis BM 4166; for MIC, +LTA: E. faecalis BM 4166, LTA 100 μg/mL; for MIC, +NaH2PO4: E. faecalis BM 4166, NaH2PO4 100 μg/mL; for MIC, +POPE: E. faecalis BM 4166, POPE 100 μg/mL; for MIC, −LTA: E. faecalis BM 4166, no LTA
Experimental: (§1) When NaH2PO4 or POPE was used instead of LTA, 10% brain-heart infusion broth containing 0.002% Tween®-80 with 100 μg/mL NaH2PO4 or 100 μg/mL POPE was used as the culture medium used for serial dilution. When additional G3 (H2N^+(CH2)3NHC(NH2)═NH2^+.2TFA) or Mg^2+ was used, 10% brain-heart infusion broth containing 0.002% Tween®-80 with 100 μg/mL G3 or 100 μg/mL MgCl2 and 100 μg/mL lipoteichoic acid was used as the culture medium for serial dilution of study group, 10% brain-heart infusion broth containing 0.002% Tween®-80 with 100 μg/mL G3 was used as the culture medium for serial dilution of control group.

[4] = system: Sensitive S. aureus ATCC 25923; experiment: In vitro antimicrobial microdilution assay (MIC); type: cell-based, Staphylococcus aureus
[5] = system: MRSA S. aureus ATCC 43300; type: cell-based, Staphylococcus aureus
[6] = system: two VanA VRE strains (E. faecalis BM4166, E. faecium ATCC BAA-2317); experiment: Resistance development assay, durability (serial passaging at 0.5×MIC); type: cell-based, Enterococcus faecalis, Enterococcus faecium
Experimental: The lowest concentration of antibiotic (in μg/mL) capable of eliminating cell growth in the wells is the reported MIC value.
A new MIC assay was performed with the same protocol above. This process was repeated for 50 passages, and the fold increase in MIC was determined after each passage.

[7] = system: VanA E. faecalis (ATCC BAA-2573); experiment: In vitro antimicrobial microdilution assay (MIC); type: cell-based, Enterococcus faecalis
[8] = system: VanA VRE E. faecium (ATCC BAA2317); type: cell-based, Enterococcus faecium; details: for MIC, −NaH2PO4 / MIC, −POPE: E. faecium ATCC BAA-2317; for MIC, LTA concentration 10 μg/mL: E. faecium ATCC BAA-2317, LTA 10 μg/mL; for MIC, +LTA: E. faecium ATCC BAA-2317, LTA 100 μg/mL; for MIC, +NaH2PO4: E. faecium ATCC BAA-2317, NaH2PO4 100 μg/mL; for MIC, +POPE: E. faecium ATCC BAA-2317, POPE 100 μg/mL; for MIC, −LTA: E. faecium ATCC BAA-2317, no LTA (0 μg/mL)
Experimental: as §1

[9] = system: VanA VRE E. faecalis BM 4166 and E. faecium ATCC BAA-2317; type: cell-based, Enterococcus faecalis, Enterococcus faecium
Experimental: The above bacterial solution was subjected to a subculture to obtain fresh mid-log phase bacterial cells (incubation time=6 hours). The bacterial suspension was diluted to a total volume of 7 mL with OD600=0.6.
After the cultured bacteria were harvested (3000 rpm, 4° C., 20 minutes), the white bacterial precipitate was washed and resuspended in 5 mM glucose and 5 mM HEPES buffer (1:1, 5.00 mL, pH=7.2).

[10] = system: VanA E. faecium (ATCC BAA-2317); experiment: In vitro antimicrobial microdilution assay (MIC); type: cell-based, Enterococcus faecium
[11] = system: VanB E. faecalis ATCC 51299; type: cell-based, Enterococcus faecalis
[12] = system: VanA E. faecium (TX2465); experiment: In vitro antimicrobial microdilution assay (MIC); type: cell-based, Enterococcus faecium
[13] = system: VanA E. faecalis BM 4166 or ATCC BAA-2573; type: cell-based, Enterococcus faecalis
[14] = Mouse pharmacokinetics, iv; details: for MRTlNF—obs: mice, iv
Experimental: Plasma was obtained by centrifugation using a microcentrifuge fit with a hematocrit rotor, and obtained plasma was immediately frozen. The use of micro-sampling blood collection reduces the total blood taken from the mouse and allows a single mouse to be used for the entire time course, reducing inter-individual variability and maintaining the health of the mouse.
Drug levels were determined by mass spectrometry using an ABSciex 5500 mass spectrometer using multiple reaction monitoring. […] All PK work was conducted in the Scripps Florida vivarium which is fully AAALAC accredited. Procedures were approved by the Scripps Florida IACUC, protocol number 15-022.

[15] = system: VanA VRSA strain VRS2 (S. aureus); details: sc once at 2 hours, thigh CFU/g at 26 hours
[16] = Maximum tolerated dose (MTD) / tolerability; type: in vivo; details: mice, PK studies; MTD not established
[17] = system: VanA VRE E. faecalis BM 4166 and E. faecium ATCC BAA-2317; details: 10 μM, LTA 100 μg/mL
[18] = system: red blood cells; experiment: Hemolysis assay

CN[C@H](CC(C)C)C(=O)N[C@H]1C(=O)N[C@@H](CC(N)=O)C(=O)N[C@H]2C(=O)NC3C(=O)N[C@H](C(=O)N[C@H](C(=O)NCCCNC(=N)N)c4cc(O)cc(O)c4-c4cc3ccc4O)[C@H](O)c3ccc(c(Cl)c3)Oc3cc2cc(c3OC2OC(CO)C(O)[C@H](O)[C@@H]2O[C@H]2CC(C)(N)[C@H](O)[C@H](C)O2)Oc2ccc(cc2Cl)[C@H]1O (some centres unmarked) [Compound 5, G3-vancomycin]
MIC, VanA E. faecalis BM 4166 [1]: 16 µg/mL (≈ 10.3 µM)
more potent than C1-vancomycin (Compound 3) ([2]; VanA VRE): 4 fold
MIC, −NaH2PO4 [3]: 16 µg/mL (≈ 10.3 µM)
MIC, −POPE [3]: 16 µg/mL (≈ 10.3 µM)
MIC, +LTA [3]: 16 µg/mL (≈ 10.3 µM)
MIC, +NaH2PO4 [3]: 16 µg/mL (≈ 10.3 µM)
MIC, +POPE [3]: 16 µg/mL (≈ 10.3 µM)
MIC, −LTA [3]: 16 µg/mL (≈ 10.3 µM)
MIC, Sensitive S. aureus ATCC 25923 [4]: 0.25 µg/mL (≈ 0.162 µM)
MIC, MRSA S. aureus ATCC 43300 [5]: 0.12 µg/mL (≈ 0.0775 µM)
resistance acquisition on serial passaging ([6]; 50 passages, 0.5×MIC): lost their activity
MIC, VanA E. faecalis ATCC BAA-2573 [7]: 4 µg/mL (≈ 2.58 µM)
MIC, −NaH2PO4 [8]: 4 µg/mL (≈ 2.58 µM)
MIC, −POPE [8]: 4 µg/mL (≈ 2.58 µM)
MIC, LTA concentration 10 μg/mL [8]: 4 µg/mL (≈ 2.58 µM)
MIC, +LTA [8]: 8 µg/mL (≈ 5.17 µM)
MIC, +NaH2PO4 [8]: 4 µg/mL (≈ 2.58 µM)
MIC, +POPE [8]: 4 µg/mL (≈ 2.58 µM)
MIC, −LTA [8]: 4 µg/mL (≈ 2.58 µM)
bacterial cell membrane permeabilization ([9]; elevated concentration (50 μM)): weak permeabilization
MIC, VanA E. faecium ATCC BAA-2317 [10]: 4 µg/mL (≈ 2.58 µM)
MIC, VanB E. faecalis ATCC 51299 [11]: 8 µg/mL (≈ 5.17 µM)
MIC, VanA E. faecium TX2465 [12]: 16 µg/mL (≈ 10.3 µM)
MIC, VanA E. faecalis [13]: 4 µg/mL (≈ 2.58 µM)

CN[C@H](CC(C)C)C(=O)N[C@H]1C(=O)N[C@@H](CC(N)=O)C(=O)N[C@H]2C(=O)NC3C(=O)N[C@H](C(=O)N[C@H](C(=O)NCCCNC(=N)N)c4cc(O)cc(O)c4-c4cc3ccc4O)[C@H](O)c3ccc(c(Cl)c3)Oc3cc2cc(c3OC2OC(CO)C(O)[C@H](O)[C@@H]2O[C@H]2CC(C)(NCc3ccc(-c4ccc(Cl)cc4)cc3)[C@H](O)[C@H](C)O2)Oc2ccc(cc2Cl)[C@H]1O (some centres unmarked) [Compound 15, G3-CBP-vancomycin]
MIC, VanA E. faecalis BM 4166 [1]: 0.6 µg/mL (≈ 0.343 µM)
more potent than vancomycin [2]: about 1000 fold
decrease of antimicrobial activity by added LTA ([3]; 100 μg/mL LTA, both VanA VRE strains): 8 fold
effect of H2PO4^− or POPE on MIC ([3]; 100 μg/mL, both VanA VRE strains): did not alter the MIC
MIC, −NaH2PO4 [3]: 0.6 µg/mL (≈ 0.343 µM)
MIC, −POPE [3]: 0.6 µg/mL (≈ 0.343 µM)
MIC, + G3^+, +LTA ([3]; E. faecalis BM 4166, G3^+ 100 μg/mL, LTA 100 μg/mL): 5 µg/mL
MIC, + G3^+, −LTA ([3]; E. faecalis BM 4166, G3^+ 100 μg/mL, no LTA): 0.6 µg/mL
MIC, +LTA [3]: 5 µg/mL (≈ 2.86 µM)
MIC, + Mg^2+, +LTA ([3]; E. faecalis BM 4166, MgCl2 100 μg/mL, LTA 100 μg/mL): 5 µg/mL
MIC, + Mg^2+, −LTA ([3]; E. faecalis BM 4166, MgCl2 100 μg/mL, no LTA): 0.6 µg/mL
MIC, +NaH2PO4 [3]: 0.6 µg/mL (≈ 0.343 µM)
MIC, +POPE [3]: 0.6 µg/mL (≈ 0.343 µM)
MIC, −LTA [3]: 0.6 µg/mL (≈ 0.343 µM)
MRTlNF—obs ([14]; 10 mg/kg): 3.9 h
MRTlNF—obs ([14]; 50 mg/kg): 4.6 h
terminal half-life in mice (t1/2) ([14]; mouse, in vivo): 4.3 to 4.4 h
MIC, Sensitive S. aureus ATCC 25923 [4]: 0.04 µg/mL (≈ 0.0229 µM)
reduction in bacterial count ([15]; 12.5 and 25 mg/kg): more than 2 log10
reduction in bacterial count ([15]; 50 or 100 mg/kg): ~3 log10
MIC, MRSA S. aureus ATCC 43300 [5]: 0.02 µg/mL (≈ 0.0114 µM)
MIC at the end of the study ([6]; 50 days): 1.2 to 2.5 µg/mL
increase in MIC ([6]; 50 days, 0.5×MIC): 4 fold
increase in MIC ([6]; over 25 days, 0.5×MIC): 2 fold
MIC, VanA E. faecalis ATCC BAA-2573 [7]: 0.15 µg/mL (≈ 0.0858 µM)
MIC, −NaH2PO4 [8]: 0.3 µg/mL (≈ 0.172 µM)
MIC, −POPE [8]: 0.3 µg/mL (≈ 0.172 µM)
MIC, + G3^+, +LTA ([8]; E. faecium ATCC BAA-2317, G3^+ 100 μg/mL, LTA 100 μg/mL): 2.5 µg/mL
MIC, + G3^+, −LTA ([8]; E. faecium ATCC BAA-2317, G3^+ 100 μg/mL, no LTA): 0.3 µg/mL
MIC, LTA concentration 10 μg/mL [8]: 0.6 µg/mL (≈ 0.343 µM)
MIC, +LTA [8]: 2.5 µg/mL (≈ 1.43 µM)
MIC, + Mg^2+, +LTA ([8]; E. faecium ATCC BAA-2317, MgCl2 100 μg/mL, LTA 100 μg/mL): 2.5 µg/mL
MIC, + Mg^2+, −LTA ([8]; E. faecium ATCC BAA-2317, MgCl2 100 μg/mL, no LTA): 0.3 µg/mL
MIC, +NaH2PO4 [8]: 0.3 µg/mL (≈ 0.172 µM)
MIC, +POPE [8]: 0.3 µg/mL (≈ 0.172 µM)
MIC, −LTA [8]: 0.3 µg/mL (≈ 0.172 µM)
bacterial cell membrane permeabilization ([9]; 10 μM added at 5 minutes): strong membrane permeabilization
MIC, VanA E. faecium ATCC BAA-2317 [10]: 0.3 µg/mL (≈ 0.172 µM)
tolerated at doses up to and including [16]: ≤ 50 mg/kg
MIC, VanB E. faecalis ATCC 51299 [11]: 0.04 µg/mL (≈ 0.0229 µM)
MIC, VanA E. faecalis TX 2465 ([12]; Table 2 head as printed): 0.6 µg/mL (≈ 0.343 µM)
permeabilization in the presence of exogenous LTA [17]: nearly or completely abolished
MIC, VanA E. faecalis [13]: 0.15 µg/mL (≈ 0.0858 µM)
hemolytic activity [18]: no hemolytic activity
